Test results from PMC3082566, “PTB Domain-Directed Substrate Targeting in a Tyrosine Kinase from the Unicellular Choanoflagellate Monosiga brevicollis” (PLoS ONE, 2011).
These are yes or no findings as the source states them, for the method shown. For some of these results: Binding calls can cover weak binding; strength is not graded here. For some of these results: In cells and extracts the contact can be indirect.

How the values were obtained:
[1] = molecular target: T1, pYEEI peptide (EPQpYEEIG); assay: pull-down; lysates of SYF cells expressing FLAG-tagged wild-type or ΔPTB HMTK1 incubated with immobilized pYEEI peptide, phospho-Kemptide or control resin; anti-FLAG Western blotting; only the target purified
T1 sequence (peptide, phosphotyrosine (pY, fourth residue of the printed letters)): EPQYEEIG

[2] = molecular target: T1, pYEEI peptide (EPQpYEEIG); assay: pull-down; peptide linked to Affi-Gel 15 resin; purified HMTK1, c-Src or isolated GST-PTB incubated 1 hour at 4°C; washed 4 times with binding buffer (50 mM Tris-HCl pH 7.5, 5 mM EDTA, 100 mM NaCl, 0.1% Triton X-100, 1 mM DTT, 0.5 mM Na3VO4); bound protein seen by Coomassie staining or Western blotting (anti-GST, anti-His6); both purified
[3] = molecular target: T2, PTB ligand-containing substrate (…pYATLG); assay: as above
T2 sequence (peptide, phosphotyrosine (pY, residue 20 of the printed letters)): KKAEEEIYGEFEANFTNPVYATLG

Substance	binding [1]	binding [2]	binding [3]
FLAG-tagged ΔPTB form of HMTK1 (Monosiga brevicollis) (domain or fragment)	no binding		
GST fusion of the isolated third PTB domain of HMTK1 (residues 341-474) (Monosiga brevicollis) (domain or fragment)		binds	
His-tagged HMTK1 PTB-kinase construct (residues 341-761) (Monosiga brevicollis) (enzyme)		binds	binds
